# In PubChem BioAssay AID1508633 (National Center for Advancing Translational Sciences (NCATS), 2021):
# The shares of active, inactive and inconclusive entries below differ from those in the screen. Potencies of inconclusive entries are doubtful fits and often do not repeat. The source made the active and inactive calls. Calls follow the shape of the dose curve; as a rule, active = well fitted inhibition curve with a large enough effect; inconclusive = small, poorly fitted or top-dose-only effect; inactive = no such curve, though single readings can be large or run the other way.
# Test system: zebrafish ABCB5 (Abcb5) multidrug transporter
# Assay: qHTS for characterization and localization of zebrafish homologs of the human ABCB1 multidrug transporter: ABCB5 transfected cells
# Conditions: CellTiter-Glo luminescence viability, 72 h; series mostly up to 46.1 µM
# Source text: The zebrafish has emerged as a potential model to study the blood-brain barrier (BBB) given its similarities with mammalian systems. However, little information has been available with regard to homologous ATP-binding cassette transporters expressed at the zebrafish BBB. Two transporters that are highly expressed at the human BBB are P-glycoprotein (P-gp, encoded by the ABCB1 gene) and ABCG2 (encoded by the ABCG2 gene). In this study, we focus on characterization of P-gp homologs in the zebrafish, which has two genes that are homologous to human ABCB1 - abcb4 and abcb5. We generated stably-transfected cell lines to determine their substrate specificities. […] Zebrafish abcb4 also colocalized with claudin 5 expression in brain endothelial cells.
# A high-throughput screen was performed as previously described on empty vector transfected cells, P-gp-overexpressing MDR-19 cells and cells transfected with full-length zebrafish abcb4 (ZF Abcb4) or abcb5 (ZF Abcb5). Briefly, cells were plated into 1536-well plates at a density of 500 cells/well in 5 uL media. P-gp substrate compounds (approximately 90) selected from our previous study were then added at varying concentrations using a 1536-head pin tool (Kalypsis, San Diego, CA) and plates were incubated at 37C in 5% CO2 for 72 h. CellTiter-Glo reagent (Promega) was dispensed into the wells, incubated for 5 min and luminescence was read on a ViewLux instrument (Perkin-Elmer).
# Cytotoxic compounds were defined as those that yielded a curve class of -1.1, -1.2, -2.1, -2.2, -2.3, or -2.4, a maximum response of >50% and an AC50 of < 10 uM. All compounds from screening analysis were tested in Vector (empty vector control), MDR-19 (P-gp overexpressing), zebrafish abcb4 (ZF Abcb4) and abcb5 (ZF Abcb5) expression cell lines.
# 1. Tobie D Lee, Olivia W Lee, Kyle R Brimacombe, Lu Chen, Rajarshi Guha, Sabrina Lusvarghi, Bethilehem G Tebase, Carleen Klumpp-Thomas, Robert W Robey, Suresh V Ambudkar, Min Shen, Michael M Gottesman, Matthew D Hall. A High-Throughput Screen of a Library of Therapeutics Identifies Cytotoxic Substrates of P-glycoprotein. Mol Pharmacol. 2019, Nov;96(5):629-640.
row,SMILES,Potency
1,CN(C)C1CCN(C(=O)c2ccc(NC(=O)Nc3ccc(-c4nc(N5CCOCC5)nc(N5CCOCC5)n4)cc3)cc2)CC1,active: 7430 nM
2,CCn1c(-c2nonc2N)nc2c(C#CC(C)(C)O)ncc(OC[C@H]3CCCNC3)c21,"inconclusive: 2640 nM [inhibitor, full curve]"
3,C=CCn1c(=O)c2cnc(Nc3ccc(N4CCN(C)CC4)cc3)nc2n1-c1cccc(C(C)(C)O)n1,active: 2350 nM
4,CC[C@@]1(O)CC2CN(CCc3c([nH]c4ccccc34)[C@](C(=O)OC)(c3cc4c(cc3OC)N(C)C3[C@@](O)(C(N)=O)[C@H](O)[C@]5(CC)C=CCN6CC[C@@]43[C@@H]65)C2)C1 (some centres not stated),"inconclusive: 833 nM [inhibitor, full curve]"
5,CC(C)C[C@H](NC(=O)[C@@H](NC(=O)c1cccc(-c2ccccc2)n1)[C@@H](C)O)B(O)O,active: 118 nM
6,CC(=O)OC1C(=O)C2(C)C(O)CC3OCC3(OC(C)=O)C2C(OC(=O)c2ccccc2)C2(O)CC(OC(=O)C(O)C(NC(=O)c3ccccc3)c3ccccc3)C(C)=C1C2(C)C (configuration not stated),inactive
7,CC1(C)CC(NC(=O)C(=O)Nc2ccc(Br)cc2)CC(C)(C)N1,inactive
8,CC1(C)CC[C@]2(C(=O)OC3OC(CO)C(O)C(O)C3O)CC[C@]3(C)C(=CCC4[C@@]5(C)CC[C@H](OC6OC(C(=O)O)C(O)C(O)C6O)C(CO)(CO)C5CC[C@]43C)[C@@H]2C1 (some centres not stated),"inconclusive: 8880 nM [inhibitor, partial curve, poor fit]"
9,COc1ccc(CC2C(=O)NC(C)C(=O)N(C)C3Cc4ccc(cc4)Oc4cc(ccc4OC4OC(CO)C(O)C(O)C4O)CC(C(=O)NC(C)C(=O)NC(C)C(=O)N2C)N(C)C3=O)cc1 (configuration not stated),"inconclusive: 1580 nM [inhibitor, full curve]"
10,CN(C)c1ccc(C(=C2C=CC(=[N+](C)C)C=C2)c2ccc(N(C)C)cc2)cc1,active: 935 nM
11,COC(C(=O)N1Cc2[nH]nc(NC(=O)c3ccc(N4CCN(C)CC4)cc3)c2C1)c1ccccc1 (configuration not stated),"inconclusive: 16600 nM [inhibitor, partial curve, poor fit]"
12,COc1cccc2c1C(=O)c1c(O)c3c(c(O)c1C2=O)C[C@@](O)(C(=O)CO)C[C@H]3O[C@H]1C[C@H](N)[C@@H](O)[C@H](C)O1,"inconclusive: 469 nM [inhibitor, full curve]"

# Ordered by SMILES length (high to low): some entries from above.
row,SMILES,Potency
1,CN(C)C1CCN(C(=O)c2ccc(NC(=O)Nc3ccc(-c4nc(N5CCOCC5)nc(N5CCOCC5)n4)cc3)cc2)CC1,active: 7430 nM
3,C=CCn1c(=O)c2cnc(Nc3ccc(N4CCN(C)CC4)cc3)nc2n1-c1cccc(C(C)(C)O)n1,active: 2350 nM
7,CC1(C)CC(NC(=O)C(=O)Nc2ccc(Br)cc2)CC(C)(C)N1,inactive
